# Laboratory results taken from PubChem BioAssay AID192 (DTP/NCI, 2004).
# The list is a part of this screen's results and no random one: it is rich in T/C values a quarter to a half above the control, in often repeated tests (any T/C) and in doses without a T/C. Further doses and runs are listed elsewhere. T/C gives the treated animals as a percentage of the vehicle group. Some entries give survivors of the animals treated and no T/C: the source holds a T/C of zero for them, seemingly a mark for toxic or unscored doses. Some survivor counts are full or nearly so, which does not show that the dose was tolerated: the source hardly ever lists a survival T/C far under the control, and the zero likely stands for such cases as well. Survivors were counted at the toxicity check, usually on the fifth day, unless a day is given; later deaths do not show. Schedule codes are those of the source, taken here to give the interval after Q, in days (D) or hours (H), and the number of doses after X. Counts like (3×) stand for listed records that agree. Some entries hold several experiments; their values stand side by side, smallest first. For survival time, the PubChem record calls one and a half times the control and up active, and a quarter to a half above the control has no call in these data; cut-offs in other NCI protocols can differ. Some T/C values are followed by the survivors on the day toxicity was checked, most often the fifth; without a count, all were alive then.
# System: BDF1 mice, B16 melanoma ip, median survival T/C
# Test: NCI In Vivo Anticancer Drug Screen. Data for tumor model B16 Melanoma (intraperitoneal) in B6D2F1 (BDF1) mice
# Conditions: T/C endpoint: median survival time, higher T/C = longer survival
# How it was run: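 Survival or tumor size is measured after treatment of tumor-bearing mice and normalised to the vehicle-treated control group.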
# [1] = dose: 400.0 mg/kg/injection, schedule: Q01DX009 (ip), vehicle: Klucel (hydroxypropylcellulose) (HPC)
# [2] = dose: 100.0 mg/kg/injection, schedule: Q01DX009 (ip), vehicle: saline
# [3] = dose: 25.0 mg/kg/injection, schedule: Q01DX009 (ip), vehicle: saline
# [4] = dose: 50.0 mg/kg/injection, schedule: Q01DX009 (ip), vehicle: saline
# [5] = dose: 16.0 mg/kg/injection, schedule: Q01DX009 (ip), vehicle: saline
smiles,measurement,setting,value
C=C1C(C)C2C(Cc3ccccc3)NC(=O)C23C(OC(C)=O)C=CC(C)(O)C(=O)C(C)C/C=C/C3C1O (configuration not stated),T/C,"dose: 0.31 mg/kg/injection, schedule: Q01DX009 (ip), vehicle: Klucel (hydroxypropylcellulose) (HPC)",143 % of control
same,T/C,"dose: 0.62 mg/kg/injection, schedule: Q01DX009 (ip), vehicle: Klucel (hydroxypropylcellulose) (HPC)",129 % of control
same,survivor count,"dose: 10.0 mg/kg/injection, schedule: Q01DX009 (ip), vehicle: Klucel (hydroxypropylcellulose) (HPC)",2 of 10
Oc1ccc(SCc2ccc(NCc3ccccc3)cc2)cc1,survivor count,"dose: 12.5 mg/kg/injection, schedule: Q01DX009 (ip), vehicle: DMSO",9 of 9
same,survivor count,"dose: 25.0 mg/kg/injection, schedule: Q01DX009 (ip), vehicle: DMSO",10 of 10
same,survivor count,"dose: 50.0 mg/kg/injection, schedule: Q01DX009 (ip), vehicle: DMSO",10 of 10
same,survivor count,"dose: 100.0 mg/kg/injection, schedule: Q01DX009 (ip), vehicle: DMSO",10 of 10
same,survivor count,"dose: 200.0 mg/kg/injection, schedule: Q01DX009 (ip), vehicle: DMSO",3 of 10
same,survivor count,"dose: 400.0 mg/kg/injection, schedule: Q01DX009 (ip), vehicle: DMSO",1 of 10
CCCCNC(=O)Nc1ccc(C(=O)OCC(C)C)cc1,survivor count,"dose: 400.0 mg/kg/injection, schedule: Q01DX009 (ip), vehicle: saline with Tween-80",10 of 10
O=C(CC(NC(=O)OCc1ccccc1)C(=O)O)OCc1ccccc1 (configuration not stated),survivor count,[1],7 of 10
O=C(CO)c1ccc([N+](=O)[O-])cc1,survivor count,"dose: 6.25 mg/kg/injection, schedule: Q01DX009 (ip), vehicle: saline with Tween-80",10 of 10
CN1CCC=C(CN2c3ccccc3Sc3ccccc32)C1,survivor count,[2],5 of 10
O=NO.O=N[O-].O=N[O-].[Co+3].[NH2-].[NH2-].[NH2-].[NH2-],survivor count,"dose: 50.0 mg/kg/injection, schedule: Q01DX009 (ip), vehicle: Klucel (hydroxypropylcellulose) (HPC)",10 of 10
same,survivor count,"dose: 100.0 mg/kg/injection, schedule: Q01DX009 (ip), vehicle: Klucel (hydroxypropylcellulose) (HPC)",1 of 10
CN(C)CC/C=C1\c2ccccc2Sc2ccc(C(F)(F)F)cc21,survivor count,"dose: 12.5 mg/kg/injection, schedule: Q01DX009 (ip), vehicle: saline",4 of 10
same,survivor count,[3],0 of 10
same,survivor count,[4],0 of 10
same,survivor count,[2],0 of 10
S=P(N1CC1)(N1CC1)N1CC1,T/C,"dose: 1.0 mg/kg/injection, schedule: Q01DX009 (ip), vehicle: saline, evaluated on day 45",87 and 115 % of control
same,T/C,"dose: 1.0 mg/kg/injection, schedule: Q01DX009 (ip), vehicle: saline, evaluated on day 60","100 (2×), 105, 115, 118 % of control [9 of 10 alive]"
same,T/C,"dose: 2.0 mg/kg/injection, schedule: Q01DX009 (ip), vehicle: saline, evaluated on day 45",89 and 110 % of control
same,T/C,"dose: 2.0 mg/kg/injection, schedule: Q01DX009 (ip), vehicle: saline, evaluated on day 60","94, 100, 110, 116, 130 % of control"
same,T/C,"dose: 2.0 mg/kg/injection, schedule: Q02DX009 (ip), vehicle: saline",126 % of control
same,T/C,"dose: 3.0 mg/kg/injection, schedule: Q02DX009 (ip), vehicle: saline",127 % of control
same,T/C,"dose: 4.0 mg/kg/injection, schedule: Q01DX009 (ip), vehicle: saline, evaluated on day 45",94 and 129 % of control
same,T/C,"dose: 4.0 mg/kg/injection, schedule: Q01DX009 (ip), vehicle: saline, evaluated on day 60","89, 108, 113, 121, 138 % of control"
same,T/C,"dose: 4.0 mg/kg/injection, schedule: Q02DX009 (ip), vehicle: saline",135 % of control
same,survivor count,"dose: 6.0 mg/kg/injection, schedule: Q01DX009 (ip), vehicle: saline",10 of 10
same,T/C,"dose: 8.0 mg/kg/injection, schedule: Q01DX009 (ip), vehicle: saline, evaluated on day 45",86 % of control
same,T/C,"dose: 8.0 mg/kg/injection, schedule: Q01DX009 (ip), vehicle: saline, evaluated on day 60",115 % of control
same,survivor count,"dose: 8.0 mg/kg/injection, schedule: Q01DX009 (ip), vehicle: saline",10 of 10 (2×)
same,survivor count,"dose: 8.0 mg/kg/injection, schedule: Q02DX009 (ip), vehicle: saline",10 of 10
same,survivor count,"dose: 12.0 mg/kg/injection, schedule: Q01DX009 (ip), vehicle: saline",10 of 10
same,survivor count,"dose: 12.0 mg/kg/injection, schedule: Q02DX009 (ip), vehicle: saline",10 of 10
same,T/C,[5],97 % of control
same,survivor count,[5],"3 of 10, 9 of 10, 10 of 10 (2×)"
same,survivor count,"dose: 16.0 mg/kg/injection, schedule: Q02DX009 (ip), vehicle: saline",10 of 10
same,survivor count,"dose: 24.0 mg/kg/injection, schedule: Q01DX009 (ip), vehicle: saline",2 of 10 and 3 of 10
same,survivor count,"dose: 24.0 mg/kg/injection, schedule: Q02DX009 (ip), vehicle: saline",9 of 10 and 10 of 10
same,survivor count,"dose: 32.0 mg/kg/injection, schedule: Q02DX009 (ip), vehicle: saline",2 of 10 and 5 of 10
same,survivor count,"dose: 64.0 mg/kg/injection, schedule: Q02DX009 (ip), vehicle: saline",2 of 10 and 7 of 10
COC1=CC(=O)N(C(=O)C2CSC(C(CO)NC(=O)c3csc(/C=N/O)n3)=N2)C1 (configuration not stated),T/C,"dose: 200.0 mg/kg/injection, schedule: Q01DX009 (ip), vehicle: Klucel (hydroxypropylcellulose) (HPC)",127 % of control
CCC(CO)NC(=O)C1C=C2c3cccc4[nH]cc(c34)CC2N(C)C1 (configuration not stated),survivor count,[1],0 of 10
CC(CN1c2ccccc2Sc2cccnc21)N(C)C (configuration not stated),survivor count,[2],0 of 10
same,survivor count,"dose: 200.0 mg/kg/injection, schedule: Q01DX009 (ip), vehicle: saline",0 of 10
same,survivor count,"dose: 400.0 mg/kg/injection, schedule: Q01DX009 (ip), vehicle: saline",0 of 10
c1cc2cc3c(cc2c2c1CC1c4cc5c(cc4CCN1C2)OCO5)OCO3 (configuration not stated),survivor count,[1],10 of 10
COC1=C2C[C@@H](C)C[C@@H](OC)[C@@H](O)[C@H](C)/C=C(\C)[C@@H](OC(N)=O)[C@H](OC)/C=C\C=C(/C)C(=O)NC(=CC1=O)C2=O,T/C,"dose: 1.0 mg/kg/injection, schedule: Q01DX005 (ip), vehicle: other",127 % of control
same,T/C,"dose: 1.0 mg/kg/injection, schedule: Q01DX005 (ip), vehicle: water",130 % of control
same,T/C,"dose: 1.0 mg/kg/injection, schedule: Q01DX009 (ip), vehicle: saline with Tween-80",125 % of control
same,survivor count,"dose: 2.0 mg/kg/injection, schedule: Q01DX005 (ip), vehicle: other",3 of 6
same,T/C,"dose: 2.0 mg/kg/injection, schedule: Q01DX005 (ip), vehicle: water, evaluated on day 45",130 % of control
same,T/C,"dose: 2.0 mg/kg/injection, schedule: Q01DX005 (ip), vehicle: water, evaluated on day 60",125 % of control
same,T/C,"dose: 2.0 mg/kg/injection, schedule: Q01DX009 (ip), vehicle: saline with Tween-80",145 % of control
same,survivor count,"dose: 4.0 mg/kg/injection, schedule: Q01DX005 (ip), vehicle: other",0 of 6
same,T/C,"dose: 4.0 mg/kg/injection, schedule: Q01DX005 (ip), vehicle: saline with Tween-80",138 % of control [9 of 10 alive]
same,survivor count,"dose: 4.0 mg/kg/injection, schedule: Q01DX005 (ip), vehicle: water",1 of 6 and 2 of 6
same,survivor count,"dose: 4.0 mg/kg/injection, schedule: Q01DX009 (ip), vehicle: saline with Tween-80",7 of 10
same,survivor count,"dose: 8.0 mg/kg/injection, schedule: Q01DX005 (ip), vehicle: water",0 of 6 (2×)
CCCCCC(CN(C)C)C(=O)/C=C\c1ccc(Cl)cc1Cl (configuration not stated),survivor count,[3],10 of 10
same,survivor count,[4],10 of 10
